Holding throughout (experiment): affinity purification with mass spectrometry; chromosomal C-terminal SPA tag (three FLAG sequences and a calmodulin-binding peptide separated by a protease cleavage site) on the bait in E. coli DY330 (W3110 background); tandem-affinity purification of endogenous complexes under standard culture conditions; copurifying proteins detected by LCMS and MALDI; pairs filtered at confidence >=0.75

Sequences of proteins named here, by UniProt entry; tags and fusion partners are left off.
UniProt P21513: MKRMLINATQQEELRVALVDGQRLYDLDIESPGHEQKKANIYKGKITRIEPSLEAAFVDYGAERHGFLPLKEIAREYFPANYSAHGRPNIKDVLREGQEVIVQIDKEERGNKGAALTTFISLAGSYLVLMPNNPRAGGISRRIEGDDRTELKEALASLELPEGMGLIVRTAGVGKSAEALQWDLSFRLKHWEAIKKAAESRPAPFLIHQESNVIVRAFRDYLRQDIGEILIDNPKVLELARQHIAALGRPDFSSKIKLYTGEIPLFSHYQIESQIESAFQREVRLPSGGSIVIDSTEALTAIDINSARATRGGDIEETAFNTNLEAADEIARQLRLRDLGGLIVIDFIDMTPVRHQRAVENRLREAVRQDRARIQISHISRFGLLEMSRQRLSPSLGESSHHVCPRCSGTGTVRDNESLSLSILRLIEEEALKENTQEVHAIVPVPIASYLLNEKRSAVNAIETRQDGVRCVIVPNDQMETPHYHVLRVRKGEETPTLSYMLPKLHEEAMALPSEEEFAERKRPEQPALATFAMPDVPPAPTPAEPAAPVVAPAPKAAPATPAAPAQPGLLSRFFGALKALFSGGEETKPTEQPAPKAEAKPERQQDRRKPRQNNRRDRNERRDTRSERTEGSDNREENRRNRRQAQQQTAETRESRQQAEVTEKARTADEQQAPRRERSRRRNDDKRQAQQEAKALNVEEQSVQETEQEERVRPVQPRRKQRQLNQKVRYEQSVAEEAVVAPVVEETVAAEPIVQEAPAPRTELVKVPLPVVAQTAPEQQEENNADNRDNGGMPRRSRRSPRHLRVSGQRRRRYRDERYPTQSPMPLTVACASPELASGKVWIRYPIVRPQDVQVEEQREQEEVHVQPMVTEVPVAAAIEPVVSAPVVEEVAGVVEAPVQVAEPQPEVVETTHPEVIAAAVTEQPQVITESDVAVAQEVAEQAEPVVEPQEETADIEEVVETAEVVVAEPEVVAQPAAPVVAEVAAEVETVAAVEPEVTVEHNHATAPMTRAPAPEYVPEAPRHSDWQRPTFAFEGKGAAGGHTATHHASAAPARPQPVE
UniProt P36979: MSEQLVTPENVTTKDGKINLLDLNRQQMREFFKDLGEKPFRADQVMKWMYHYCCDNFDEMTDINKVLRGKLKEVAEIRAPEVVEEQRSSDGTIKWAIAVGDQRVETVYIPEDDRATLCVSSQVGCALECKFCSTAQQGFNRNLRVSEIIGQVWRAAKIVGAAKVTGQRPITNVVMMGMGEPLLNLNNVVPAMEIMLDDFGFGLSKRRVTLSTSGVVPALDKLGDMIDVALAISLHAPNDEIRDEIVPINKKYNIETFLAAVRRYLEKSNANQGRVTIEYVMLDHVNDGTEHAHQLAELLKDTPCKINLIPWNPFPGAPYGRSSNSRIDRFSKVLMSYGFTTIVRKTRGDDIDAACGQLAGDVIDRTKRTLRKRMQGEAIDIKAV

The target of experiment [1] is T1, YncE (E. coli K-12 W3110 (endogenous in DY330)) (UniProt P76116).
T1 sequence: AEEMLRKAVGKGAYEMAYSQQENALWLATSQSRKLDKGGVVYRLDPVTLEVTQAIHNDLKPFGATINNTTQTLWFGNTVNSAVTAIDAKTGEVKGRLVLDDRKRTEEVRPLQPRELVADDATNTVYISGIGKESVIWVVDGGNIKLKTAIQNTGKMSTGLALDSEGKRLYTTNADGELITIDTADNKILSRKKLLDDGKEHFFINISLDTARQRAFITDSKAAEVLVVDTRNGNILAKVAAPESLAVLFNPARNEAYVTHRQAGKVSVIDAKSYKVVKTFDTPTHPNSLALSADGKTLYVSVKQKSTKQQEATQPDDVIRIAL

Experiment [2] addresses T2, YbcJ (E. coli K-12 W3110 (endogenous in DY330)) (UniProt P0AAS7).
T2 sequence: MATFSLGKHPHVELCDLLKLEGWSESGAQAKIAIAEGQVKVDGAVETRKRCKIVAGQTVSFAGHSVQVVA

For experiment [3], the target named is T3, YibL (E. coli K-12 W3110 (endogenous in DY330)) (UniProt P0ADK8).
T3 sequence: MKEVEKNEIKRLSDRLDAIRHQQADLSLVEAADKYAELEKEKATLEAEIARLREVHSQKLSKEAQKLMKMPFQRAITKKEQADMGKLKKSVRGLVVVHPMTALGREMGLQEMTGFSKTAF

Experiment [4] deals with T4, YjcF (E. coli K-12 W3110 (endogenous in DY330)) (UniProt P32704).
T4 sequence: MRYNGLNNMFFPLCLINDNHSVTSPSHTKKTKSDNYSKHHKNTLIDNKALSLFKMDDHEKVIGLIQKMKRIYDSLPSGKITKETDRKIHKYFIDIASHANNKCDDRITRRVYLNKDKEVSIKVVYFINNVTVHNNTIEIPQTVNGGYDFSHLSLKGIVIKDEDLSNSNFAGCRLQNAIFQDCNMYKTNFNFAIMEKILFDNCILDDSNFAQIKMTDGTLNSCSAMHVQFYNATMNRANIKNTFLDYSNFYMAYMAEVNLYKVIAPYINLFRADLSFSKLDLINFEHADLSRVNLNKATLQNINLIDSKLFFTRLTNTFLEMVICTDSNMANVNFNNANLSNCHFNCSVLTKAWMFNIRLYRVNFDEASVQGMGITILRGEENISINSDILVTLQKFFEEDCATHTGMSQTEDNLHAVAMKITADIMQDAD

These are yes or no findings as the source states them, for the method shown. In cells and extracts the contact can be indirect. Here binding means that the protein was enriched with, or labelled near, the bait; the list need not be complete. For some assays here: Where a sequence is shown, tags or fusion partners need not be part of it.

“exoribonuclease E (Rne) (from UniProt P21513 1-1061) (enzyme)”: the binding result in experiment [1] and in experiment [2] was “binds” in each case.
For YfgB (from UniProt P36979 1-384), the binding entry in experiment [3] is “binds”.

B1: YbeB (protein, UniProt P0AAT6 1-105)
chain: MQGKALQDFVIDKIDDLKGQDIIALDVQGKSSITDCMIICTGTSSRHVMSIADHVVQESRAAGLLPLGVEGENSADWIVVDLGDVIVHVMQEESRRLYELEKLWS
B1: in experiment [4], the binding result is recorded as “binds”.

B2: RNA helicase SrmB (enzyme, UniProt P21507 1-444)
chain: MTVTTFSELELDESLLEALQDKGFTRPTAIQAAAIPPALDGRDVLGSAPTGTGKTAAYLLPALQHLLDFPRKKSGPPRILILTPTRELAMQVSDHARELAKHTHLDIATITGGVAYMNHAEVFSENQDIVVATTGRLLQYIKEENFDCRAVETLILDEADRMLDMGFAQDIEHIAGETRWRKQTLLFSATLEGDAIQDFAERLLEDPVEVSANPSTRERKKIHQWYYRADDLEHKTALLVHLLKQPEATRSIVFVRKRERVHELANWLREAGINNCYLEGEMVQGKRNEAIKRLTEGRVNVLVATDVAARGIDIPDVSHVFNFDMPRSGDTYLHRIGRTARAGRKGTAISLVEAHDHLLLGKVGRYIEEPIKARVIDELRPKTRAPSEKQTGKPSKKVLAKRAEKKKAKEKEKPRVKKRHRDTKNIGKRRKPSGTGVPPQTTEE
As for B2, the binding entry in experiment [1] is recorded as “binds”.

B3: ribosomal release factor 2 (protein, UniProt P07012 1-365)
chain: MFEINPVNNRIQDLTERSDVLRGYLDYDAKKERLEEVNAELEQPDVWNEPERAQALGKERSSLEAVVDTLDQMKQGLEDVSGLLELAVEADDEETFNEAVAELDALEEKLAQLEFRRMFSGEYDSADCYLDIQAGSGGTEAQDWASMLERMYLRWAESRGFKTEIIEESEGEVAGIKSVTIKISGDYAYGWLRTETGVHRLVRKSPFDSGGRRHTSFSSAFVYPEVDDDIDIEINPADLRIDVYRTSGAGGQHVNRTESAVRITHIPTGIVTQCQNDRSQHKNKDQAMKQMKAKLYELEMQKKNAEKQAMEDNKSDIGWGSQIRSYVLDDSRIKDLRTGVETRNTQAVLDGSLDQFIEASLKAGL
B3: the binding entry in experiment [4] was “binds”.

B4: RppH (formerly NudH) (enzyme, UniProt P0A776 1-176)
chain: MIDDDGYRPNVGIVICNRQGQVMWARRFGQHSWQFPQGGINPGESAEQAMYRELFEEVGLSRKDVRILASTRNWLRYKLPKRLVRWDTKPVCIGQKQKWFLLQLVSGDAEINMQTSSTPEFDGWRWVSYWYPVRQVVSFKRDVYRRVMKEFASVVMSLQENTPKPQNASAYRRKRG
Turning to B4, the binding entry in experiment [3] was “binds”.

B5: RNA pseudouridine synthetase RluC (enzyme, UniProt P0AA39 1-319)
chain: MKTETPSVKIVAITADEAGQRIDNFLRTQLKGVPKSMIYRILRKGEVRVNKKRIKPEYKLEAGDEVRIPPVRVAEREEEAVSPHLQKVAALADVILYEDDHILVLNKPSGTAVHGGSGLSFGVIEGLRALRPEARFLELVHRLDRDTSGVLLVAKKRSALRSLHEQLREKGMQKDYLALVRGQWQSHVKSVQAPLLKNILQSGERIVRVSQEGKPSETRFKVEERYAFATLVRCSPVTGRTHQIRVHTQYAGHPIAFDDRYGDREFDRQLTEAGTGLNRLFLHAAALKFTHPGTGEVMRIEAPMDEGLKRCLQKLRNAR
Turning to B5, the binding entry in experiment [3] was “binds”.

B6: pseudouridylate synthase RluB (enzyme, UniProt P37765 1-291)
chain: MSEKLQKVLARAGHGSRREIESIIEAGRVSVDGKIAKLGDRVEVTPGLKIRIDGHLISVRESAEQICRVLAYYKPEGELCTRNDPEGRPTVFDRLPKLRGARWIAVGRLDVNTCGLLLFTTDGELANRLMHPSREVEREYAVRVFGQVDDAKLRDLSRGVQLEDGPAAFKTIKFSGGEGINQWYNVTLTEGRNREVRRLWEAVGVQVSRLIRVRYGDIPLPKGLPRGGWTELDLAQTNYLRELVELPPETSSKVAVEKDRRRMKANQIRRAVKRHSQVSGGRRSGGRNNNG
On to B6, for which the binding entry in experiment [1], in experiment [3] and in experiment [2] was “binds” throughout.

B7: exoribonuclease R (Rnr) (enzyme, UniProt P21499 1-813)
chain: MSQDPFQEREAEKYANPIPSREFILEHLTKREKPASRDELAVELHIEGEEQLEGLRRRLRAMERDGQLVFTRRQCYALPERLDLVKGTVIGHRDGYGFLRVEGRKDDLYLSSEQMKTCIHGDQVLAQPLGADRKGRREARIVRVLVPKTSQIVGRYFTEAGVGFVVPDDSRLSFDILIPPDQIMGARMGFVVVVELTQRPTRRTKAVGKIVEVLGDNMGTGMAVDIALRTHEIPYIWPQAVEQQVAGLKEEVPEEAKAGRVDLRDLPLVTIDGEDARDFDDAVYCEKKRGGGWRLWVAIADVSYYVRPSTPLDREARNRGTSVYFPSQVIPMLPEVLSNGLCSLNPQVDRLCMVCEMTVSSKGRLTGYKFYEAVMSSHARLTYTKVWHILQGDQDLREQYAPLVKHLEELHNLYKVLDKAREERGGISFESEEAKFIFNAERRIERIEQTQRNDAHKLIEECMILANISAARFVEKAKEPALFRIHDKPSTEAITSFRSVLAELGLELPGGNKPEPRDYAELLESVADRPDAEMLQTMLLRSMKQAIYDPENRGHFGLALQSYAHFTSPIRRYPDLTLHRAIKYLLAKEQGHQGNTTETGGYHYSMEEMLQLGQHCSMAERRADEATRDVADWLKCDFMLDQVGNVFKGVISSVTGFGFFVRLDDLFIDGLVHVSSLDNDYYRFDQVGQRLMGESSGQTYRLGDRVEVRVEAVNMDERKIDFSLISSERAPRNVGKTAREKAKKGDAGKKGGKRRQVGKKVNFEPDSAFRGEKKTKPKAAKKDARKAKKPSAKTQKIAAATKAKRAAKKKVAE
Consider B7, for which the binding entry in experiment [1] and in experiment [2] was “binds” in each case.

B8: YbcJ (protein, UniProt P0AAS7 1-70)
chain: MATFSLGKHPHVELCDLLKLEGWSESGAQAKIAIAEGQVKVDGAVETRKRCKIVAGQTVSFAGHSVQVVA
For B8, the binding entry in experiment [3] is “binds”.

B9: RNA helicase DeaD (enzyme, UniProt P0A9P6 1-629)
chain: MAEFETTFADLGLKAPILEALNDLGYEKPSPIQAECIPHLLNGRDVLGMAQTGSGKTAAFSLPLLQNLDPELKAPQILVLAPTRELAVQVAEAMTDFSKHMRGVNVVALYGGQRYDVQLRALRQGPQIVVGTPGRLLDHLKRGTLDLSKLSGLVLDEADEMLRMGFIEDVETIMAQIPEGHQTALFSATMPEAIRRITRRFMKEPQEVRIQSSVTTRPDISQSYWTVWGMRKNEALVRFLEAEDFDAAIIFVRTKNATLEVAEALERNGYNSAALNGDMNQALREQTLERLKDGRLDILIATDVAARGLDVERISLVVNYDIPMDSESYVHRIGRTGRAGRAGRALLFVENRERRLLRNIERTMKLTIPEVELPNAELLGKRRLEKFAAKVQQQLESSDLDQYRALLSKIQPTAEGEELDLETLAAALLKMAQGERTLIVPPDAPMRPKREFRDRDDRGPRDRNDRGPRGDREDRPRRERRDVGDMQLYRIEVGRDDGVEVRHIVGAIANEGDISSRYIGNIKLFASHSTIELPKGMPGEVLQHFTRTRILNKPMNMQLLGDAQPHTGGERRGGGRGFGGERREGGRNFSGERREGGRGDGRRFSGERREGRAPRRDDSTGRRRFGGDA
Take B9: the binding result in experiment [1], in experiment [3] and in experiment [2] was “binds” in each case.

These data come from publication PMC2672614.
